Measured values as given in article PMC10163288.
Some of the results follow.

B1: il2ra_site1_1z92_sap_26_mot_HHH_b1_05862_af2_000000270_0001_22_38_H_._HHH_b1_08768_0001_0000100005_0000001_0_0001_af2pred_0001_af2pred (protein)
chain: SSSDERELTKFLSKLTARLRREFGLSKEQFEELARLILELLLKIPDPKEVEELAEEIAERLSSSS
B2: il2ra_site1_2b5i_sap_12_mot_HHH_b2_08262_af2_000000095_0001_1_15_H_._HHH_b2_06947_af2_0001_0000200004_0000001_0_0001_af2pred_dldesign_0_af2pred (protein)
chain: SSSSSLRREAIETVEALLKAGKTEEAKKVVDKLREYAEEKKDPALERLVEFLEEAIADALESSSS
B3: il2ra_site1_1z92_sap_13_mot_HHH_b1_01467_000000208_0001_22_39_H_._HHH_b2_01876_af2_0001_0001100084_0000001_0_0001_af2pred_0001_af2pred (protein)
chain: SSSSSSEEELEERVSELFTEAARIRDREEVRRLLEEALELAREANDPKLAEQVERFLKLLSSSSS
B4: il2ra_site2_2erj_sap_31_mot_HHH_b1_00941_000000060_0001_45_58_H_._HHH_b1_07953_0001_0000500014_0000001_0_0001 (protein)
chain: SSSSSDEEEIRRRVEELLERVEEIPDLHEIYRLLNEALRLAAELNDHELLKLIRELLERHSSSSS
B5: il2ra_site2_2erj_normal_mot_HHH_b2_01031_af2_000000243_0001_19_35_H_._HHH_b1_06980_0001_0000600020_0000001_0 (protein)
chain: SSSSDVEELLEEIEELLRRGDEERAEKLLHEAAELAFERRDFELFSEVAELAHLIARLEVSSSSS
B6: il2ra_site2_2erj_sap_24_mot_HHH_b2_08311_000000151_0001_42_56_H_._HHH_b2_04441_af2_0001_0000200011_0000001_0_0001 (protein)
chain: SSSSDELRKLFELANRVLHLLARGDEEEVKEVLEELERLAKELDSPNAEEIAEHLKRLVDSSSSS
B7: il2ra_site1_2b5i_normal_mot_HHH_b2_06044_000000134_0001_1_20_H_._HHH_b2_00272_af2_0001_0000100003_0000001_0_af2pred_dldesign_0_af2pred (protein)
chain: SSSSSDPHQEVWDLFKKALELWRQGKKEEAKKLLEEALKVAEKLKDEVAVADIKRFLELLSSSSS
B8: il2ra_site1_1z92_sap_21_mot_3afbd42359c492d9a5ba12d7e5b15de5_0001_000000167_0001_17_33_H_._HHH_b2_00708_af2_0001_0000100006_0000001_0_0001 (protein)
chain: DEEIQRLLREILEEVLGDPELAERELRIIEELAGGDPRRVARIVERLLRAAGDPEATKKVEELLK
B9: il2ra_site2_2erj_sap_9_mot_HHH_b1_07584_000000201_0001_42_55_H_._HHH_b1_04993_af2_0001_0000100002_0000001_0_0001 (protein)
chain: NDEAMVELFIEYVAERAGIPSIEVSVSNGEIEVRINGNDEAARRVEESARHVAKALGLEVEVEVE
B10: il2ra_site2_2erj_sap_25_mot_HHH_b1_08106_000000120_0001_20_37_H_._HHH_b2_06103_0001_0000100007_0000001_1_0001 (protein)
chain: SSSDEEEEELRELLEEVEKLIKEGNPEEAAEVLNKALHLAIRLNDVEVYQLARELYELLDNSSSS
B11: il2ra_site1_1z92_normal_mot_07d2d8a42fb0c6931fb03626c2a0eeb8_0001_000000072_0001_36_50_H_._d81e0e3f09cf5c77236f12665c7b432d_0001_0001_0000500049_0000001_0_af2pr … (protein)
chain: DDFAVEQIIRKLEKGNPRAAKRLLEKLAKLAGIPPEEIEEVLREVEELLKRDPEEAKEFLKRILS
B12: il2ra_site2_2erj_sap_24_mot_4428453eb85d3cbdb794fa6b82d21c19_0001_000000044_0001_14_30_H_._HHH_b2_00328_0001_0000300019_0000001_0_0001 (protein)
chain: SSSSDELHRLYELANEILHALSRGDEELVEELLEELEKLAEEADSRVAKENVEALRKHLDSSSSS
B13: il2ra_site2_3nfp_sap_13_mot_HHH_b1_06513_000000089_0001_42_55_H_._HHH_b2_04995_0001_0000100014_0000001_0_0001_af2pred_0001_af2pred (protein)
chain: SSSSDRRFERAVKTALRLARELSKEDPELAKEALHFAESVARMGNDPELEELVEEVQEELDSSSS
B14: il2ra_site2_3nfp_normal_mot_HHH_b2_08245_af2_000000201_0001_41_55_H_._HHH_b2_03234_af2_0001_0000100013_0000001_1_af2pred_0001_1_af2pred_swapped (protein)
chain: SSSSDEEEEAEEEVREALKRGDDERARRVVRELALEAAEKNDHELFALASELLELILKLERSSSS
B15: il2ra_site2_3nfp_normal_mot_HHH_b2_06897_000000042_0001_40_57_H_._HHH_b1_01654_0001_0000300026_0000001_0 (protein)
chain: SSSSDREEELKELLEELERLVEEGDPEEVKRLAREISELVYKYNDHEAFALLNEILARFFKSSSS
B16: il2ra_site2_2erj_normal_mot_HHH_b1_06078_000000236_0001_23_39_H_._HHH_b2_02522_0001_0000400024_0000001_0 (protein)
chain: SSSSDTFEEFAEEVERLARQLEERGDPEQARKAVESALFYAKALNSEEAEEILRELLEELSSSSS
B17: il2ra_site1_2b5i_normal_mot_HHH_b2_04910_000000118_0001_1_19_H_._HHH_b2_06534_0001_0000200010_0000001_0_af2pred_0001_af2pred_1 (protein)
chain: SSSSSTKELRELLREANELFHNGNPEEAEKVLEEAEKLAEELGSRSARRLVEKMLELLRKSSSSS
B18: il2ra_site2_3nfp_sap_17_mot_HHH_b2_03068_000000215_0001_43_56_H_._HHH_b1_00872_0001_0000600027_0000001_0_0001 (protein)
chain: SSSDETKERVEELLREVEKLIEEGNEEEAERVLLEAALVASEGRDREAFMKVNELLARLARSSSS

These binders were tested against il2ra, P01589 (assay: yeast display titration).

| Binder | apparent Kd |
| --- | --- |
| B1 | inactive: no binding seen |
| B2 | inactive: no binding seen |
| B3 | inactive: no binding seen |
| B4 | inactive: no binding seen |
| B5 | inactive: no binding seen |
| B6 | inactive: no binding seen |
| B7 | inactive: > 1.56 nM |
| B8 | inactive: no binding seen |
| B9 | inactive: no binding seen |
| B10 | inactive: no binding seen |
| B11 | inactive: no binding seen |
| B12 | inactive: no binding seen |
| B13 | inactive: no binding seen |
| B14 | inactive: no binding seen |
| B15 | inactive: no binding seen |
| B16 | inactive: no binding seen |
| B17 | inactive: no binding seen |
| B18 | inactive: no binding seen |

Reformatted: entries from further up
Binder,apparent Kd
B3,inactive: no binding seen
B18,inactive: no binding seen
